Experimental data taken from the supplement of paper PMC10849652.
This is one part of the list.

By UniProt entry, the sequences of proteins in these tests, tags left out. Where a name states a change or a piece, a line headed by the entry shows the natural chain unless it says otherwise.
UniProt Q9H6K4: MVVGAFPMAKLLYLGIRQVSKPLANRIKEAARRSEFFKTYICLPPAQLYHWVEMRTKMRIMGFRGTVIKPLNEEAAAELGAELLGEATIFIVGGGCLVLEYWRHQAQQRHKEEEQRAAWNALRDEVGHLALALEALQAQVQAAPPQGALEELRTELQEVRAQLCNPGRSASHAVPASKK
UniProt P37198: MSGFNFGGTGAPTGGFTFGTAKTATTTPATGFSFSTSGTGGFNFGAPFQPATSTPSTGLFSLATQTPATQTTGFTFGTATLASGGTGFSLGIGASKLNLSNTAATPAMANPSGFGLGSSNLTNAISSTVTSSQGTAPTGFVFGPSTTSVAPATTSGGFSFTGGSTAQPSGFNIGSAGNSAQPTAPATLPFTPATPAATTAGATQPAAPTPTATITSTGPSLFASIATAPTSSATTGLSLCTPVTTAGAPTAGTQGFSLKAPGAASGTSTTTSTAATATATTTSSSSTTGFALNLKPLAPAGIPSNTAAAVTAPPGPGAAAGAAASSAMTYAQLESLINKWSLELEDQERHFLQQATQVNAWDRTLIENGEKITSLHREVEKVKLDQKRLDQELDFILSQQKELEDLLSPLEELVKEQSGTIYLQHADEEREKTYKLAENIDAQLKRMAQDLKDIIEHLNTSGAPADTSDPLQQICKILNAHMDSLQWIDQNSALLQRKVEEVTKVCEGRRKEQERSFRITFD
UniProt Q9BZF1: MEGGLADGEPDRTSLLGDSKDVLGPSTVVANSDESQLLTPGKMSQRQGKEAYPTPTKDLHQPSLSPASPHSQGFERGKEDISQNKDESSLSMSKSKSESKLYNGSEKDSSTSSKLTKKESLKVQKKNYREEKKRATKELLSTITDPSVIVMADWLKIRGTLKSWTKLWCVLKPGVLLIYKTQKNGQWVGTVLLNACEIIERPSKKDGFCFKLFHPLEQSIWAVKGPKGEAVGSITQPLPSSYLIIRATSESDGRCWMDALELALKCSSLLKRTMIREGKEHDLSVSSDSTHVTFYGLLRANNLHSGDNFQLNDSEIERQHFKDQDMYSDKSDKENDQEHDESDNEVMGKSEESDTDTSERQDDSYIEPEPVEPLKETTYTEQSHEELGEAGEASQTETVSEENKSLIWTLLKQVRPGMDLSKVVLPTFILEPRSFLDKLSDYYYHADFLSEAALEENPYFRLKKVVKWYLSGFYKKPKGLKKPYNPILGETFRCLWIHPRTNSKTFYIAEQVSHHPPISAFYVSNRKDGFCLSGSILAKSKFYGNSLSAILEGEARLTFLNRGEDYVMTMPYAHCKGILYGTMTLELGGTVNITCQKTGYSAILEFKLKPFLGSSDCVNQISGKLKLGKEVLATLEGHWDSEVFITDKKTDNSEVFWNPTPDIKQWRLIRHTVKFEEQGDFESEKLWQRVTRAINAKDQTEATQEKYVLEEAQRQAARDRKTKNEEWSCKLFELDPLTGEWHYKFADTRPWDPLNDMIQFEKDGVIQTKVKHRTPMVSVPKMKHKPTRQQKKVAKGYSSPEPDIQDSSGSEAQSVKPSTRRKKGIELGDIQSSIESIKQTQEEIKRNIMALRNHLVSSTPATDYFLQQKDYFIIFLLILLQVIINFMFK
UniProt O43482, whole entry, looked up: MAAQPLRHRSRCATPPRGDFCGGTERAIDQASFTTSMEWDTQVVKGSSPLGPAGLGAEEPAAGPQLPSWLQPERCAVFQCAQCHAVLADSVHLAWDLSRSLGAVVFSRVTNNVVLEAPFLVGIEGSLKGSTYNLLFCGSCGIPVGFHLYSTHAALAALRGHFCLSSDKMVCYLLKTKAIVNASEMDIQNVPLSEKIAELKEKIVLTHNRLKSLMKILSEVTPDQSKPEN
UniProt Q8NFH3: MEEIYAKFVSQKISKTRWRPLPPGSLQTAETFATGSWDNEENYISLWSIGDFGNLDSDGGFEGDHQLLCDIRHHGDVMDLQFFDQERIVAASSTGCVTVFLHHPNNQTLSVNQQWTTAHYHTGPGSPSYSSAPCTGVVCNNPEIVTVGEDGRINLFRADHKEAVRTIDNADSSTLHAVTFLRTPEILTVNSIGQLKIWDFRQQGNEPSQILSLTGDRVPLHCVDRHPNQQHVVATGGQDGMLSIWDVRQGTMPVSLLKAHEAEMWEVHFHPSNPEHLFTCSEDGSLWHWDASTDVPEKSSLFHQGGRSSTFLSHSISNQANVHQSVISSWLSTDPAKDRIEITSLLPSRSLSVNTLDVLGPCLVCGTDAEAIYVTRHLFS
UniProt Q9NWU1, whole entry, looked up: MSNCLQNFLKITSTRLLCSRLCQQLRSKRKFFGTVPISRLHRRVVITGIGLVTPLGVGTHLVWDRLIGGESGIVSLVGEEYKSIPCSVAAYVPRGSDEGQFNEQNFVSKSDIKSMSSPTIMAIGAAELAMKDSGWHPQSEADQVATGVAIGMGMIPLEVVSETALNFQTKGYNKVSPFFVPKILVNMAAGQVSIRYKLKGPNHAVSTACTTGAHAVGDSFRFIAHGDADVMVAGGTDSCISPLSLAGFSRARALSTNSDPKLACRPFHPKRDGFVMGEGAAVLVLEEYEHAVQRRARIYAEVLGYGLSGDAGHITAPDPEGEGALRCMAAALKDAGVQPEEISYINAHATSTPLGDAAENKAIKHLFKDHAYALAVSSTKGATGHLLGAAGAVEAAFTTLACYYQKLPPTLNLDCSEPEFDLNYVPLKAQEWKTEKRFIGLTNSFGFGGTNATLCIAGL
UniProt Q9UBD5: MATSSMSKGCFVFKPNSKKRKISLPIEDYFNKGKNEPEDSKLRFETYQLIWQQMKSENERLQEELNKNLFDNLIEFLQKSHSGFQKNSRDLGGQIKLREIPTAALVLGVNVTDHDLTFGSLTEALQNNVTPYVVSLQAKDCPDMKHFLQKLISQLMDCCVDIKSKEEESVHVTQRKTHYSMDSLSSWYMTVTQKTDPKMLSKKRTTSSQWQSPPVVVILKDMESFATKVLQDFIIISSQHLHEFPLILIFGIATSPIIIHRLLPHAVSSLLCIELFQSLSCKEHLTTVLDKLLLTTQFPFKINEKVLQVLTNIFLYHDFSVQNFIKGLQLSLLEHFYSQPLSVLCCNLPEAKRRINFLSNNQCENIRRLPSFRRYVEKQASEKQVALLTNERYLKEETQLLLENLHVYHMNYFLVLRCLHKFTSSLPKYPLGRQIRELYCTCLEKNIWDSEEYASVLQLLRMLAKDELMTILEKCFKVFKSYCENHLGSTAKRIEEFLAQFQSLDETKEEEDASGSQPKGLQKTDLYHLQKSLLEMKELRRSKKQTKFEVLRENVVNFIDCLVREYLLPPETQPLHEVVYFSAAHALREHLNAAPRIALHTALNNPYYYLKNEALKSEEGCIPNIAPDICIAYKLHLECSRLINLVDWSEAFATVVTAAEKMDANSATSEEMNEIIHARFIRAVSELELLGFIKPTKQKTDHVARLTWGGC
UniProt P04181: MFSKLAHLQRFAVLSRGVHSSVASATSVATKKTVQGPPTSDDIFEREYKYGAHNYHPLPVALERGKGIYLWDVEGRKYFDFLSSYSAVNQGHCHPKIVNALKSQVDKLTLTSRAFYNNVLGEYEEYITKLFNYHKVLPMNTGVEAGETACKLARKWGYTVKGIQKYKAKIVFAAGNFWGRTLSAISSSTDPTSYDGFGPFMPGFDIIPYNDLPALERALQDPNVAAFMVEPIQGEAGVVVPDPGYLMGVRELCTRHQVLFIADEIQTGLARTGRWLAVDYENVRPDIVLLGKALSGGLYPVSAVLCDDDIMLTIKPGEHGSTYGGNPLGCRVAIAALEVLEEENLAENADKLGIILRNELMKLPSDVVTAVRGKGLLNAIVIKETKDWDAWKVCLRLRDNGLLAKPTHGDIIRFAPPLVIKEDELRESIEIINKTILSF
UniProt Q7Z3B4: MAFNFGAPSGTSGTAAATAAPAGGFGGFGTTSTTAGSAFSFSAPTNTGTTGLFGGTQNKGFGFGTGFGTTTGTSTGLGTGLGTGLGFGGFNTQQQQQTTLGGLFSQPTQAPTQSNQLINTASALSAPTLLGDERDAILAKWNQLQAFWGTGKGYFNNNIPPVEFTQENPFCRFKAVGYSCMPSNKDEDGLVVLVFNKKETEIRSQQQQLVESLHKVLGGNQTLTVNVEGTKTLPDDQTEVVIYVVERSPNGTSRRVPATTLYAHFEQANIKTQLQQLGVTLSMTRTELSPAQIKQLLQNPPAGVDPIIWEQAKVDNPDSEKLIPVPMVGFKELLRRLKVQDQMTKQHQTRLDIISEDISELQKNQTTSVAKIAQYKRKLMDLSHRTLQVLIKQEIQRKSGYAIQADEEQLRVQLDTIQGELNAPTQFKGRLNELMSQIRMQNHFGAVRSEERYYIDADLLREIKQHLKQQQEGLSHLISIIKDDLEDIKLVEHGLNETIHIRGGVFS
UniProt Q9NRP0: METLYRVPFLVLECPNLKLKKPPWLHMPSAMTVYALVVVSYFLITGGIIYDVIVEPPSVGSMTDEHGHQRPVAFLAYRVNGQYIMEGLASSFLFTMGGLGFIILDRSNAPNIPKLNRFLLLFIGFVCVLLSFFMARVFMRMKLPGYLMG
UniProt P35658: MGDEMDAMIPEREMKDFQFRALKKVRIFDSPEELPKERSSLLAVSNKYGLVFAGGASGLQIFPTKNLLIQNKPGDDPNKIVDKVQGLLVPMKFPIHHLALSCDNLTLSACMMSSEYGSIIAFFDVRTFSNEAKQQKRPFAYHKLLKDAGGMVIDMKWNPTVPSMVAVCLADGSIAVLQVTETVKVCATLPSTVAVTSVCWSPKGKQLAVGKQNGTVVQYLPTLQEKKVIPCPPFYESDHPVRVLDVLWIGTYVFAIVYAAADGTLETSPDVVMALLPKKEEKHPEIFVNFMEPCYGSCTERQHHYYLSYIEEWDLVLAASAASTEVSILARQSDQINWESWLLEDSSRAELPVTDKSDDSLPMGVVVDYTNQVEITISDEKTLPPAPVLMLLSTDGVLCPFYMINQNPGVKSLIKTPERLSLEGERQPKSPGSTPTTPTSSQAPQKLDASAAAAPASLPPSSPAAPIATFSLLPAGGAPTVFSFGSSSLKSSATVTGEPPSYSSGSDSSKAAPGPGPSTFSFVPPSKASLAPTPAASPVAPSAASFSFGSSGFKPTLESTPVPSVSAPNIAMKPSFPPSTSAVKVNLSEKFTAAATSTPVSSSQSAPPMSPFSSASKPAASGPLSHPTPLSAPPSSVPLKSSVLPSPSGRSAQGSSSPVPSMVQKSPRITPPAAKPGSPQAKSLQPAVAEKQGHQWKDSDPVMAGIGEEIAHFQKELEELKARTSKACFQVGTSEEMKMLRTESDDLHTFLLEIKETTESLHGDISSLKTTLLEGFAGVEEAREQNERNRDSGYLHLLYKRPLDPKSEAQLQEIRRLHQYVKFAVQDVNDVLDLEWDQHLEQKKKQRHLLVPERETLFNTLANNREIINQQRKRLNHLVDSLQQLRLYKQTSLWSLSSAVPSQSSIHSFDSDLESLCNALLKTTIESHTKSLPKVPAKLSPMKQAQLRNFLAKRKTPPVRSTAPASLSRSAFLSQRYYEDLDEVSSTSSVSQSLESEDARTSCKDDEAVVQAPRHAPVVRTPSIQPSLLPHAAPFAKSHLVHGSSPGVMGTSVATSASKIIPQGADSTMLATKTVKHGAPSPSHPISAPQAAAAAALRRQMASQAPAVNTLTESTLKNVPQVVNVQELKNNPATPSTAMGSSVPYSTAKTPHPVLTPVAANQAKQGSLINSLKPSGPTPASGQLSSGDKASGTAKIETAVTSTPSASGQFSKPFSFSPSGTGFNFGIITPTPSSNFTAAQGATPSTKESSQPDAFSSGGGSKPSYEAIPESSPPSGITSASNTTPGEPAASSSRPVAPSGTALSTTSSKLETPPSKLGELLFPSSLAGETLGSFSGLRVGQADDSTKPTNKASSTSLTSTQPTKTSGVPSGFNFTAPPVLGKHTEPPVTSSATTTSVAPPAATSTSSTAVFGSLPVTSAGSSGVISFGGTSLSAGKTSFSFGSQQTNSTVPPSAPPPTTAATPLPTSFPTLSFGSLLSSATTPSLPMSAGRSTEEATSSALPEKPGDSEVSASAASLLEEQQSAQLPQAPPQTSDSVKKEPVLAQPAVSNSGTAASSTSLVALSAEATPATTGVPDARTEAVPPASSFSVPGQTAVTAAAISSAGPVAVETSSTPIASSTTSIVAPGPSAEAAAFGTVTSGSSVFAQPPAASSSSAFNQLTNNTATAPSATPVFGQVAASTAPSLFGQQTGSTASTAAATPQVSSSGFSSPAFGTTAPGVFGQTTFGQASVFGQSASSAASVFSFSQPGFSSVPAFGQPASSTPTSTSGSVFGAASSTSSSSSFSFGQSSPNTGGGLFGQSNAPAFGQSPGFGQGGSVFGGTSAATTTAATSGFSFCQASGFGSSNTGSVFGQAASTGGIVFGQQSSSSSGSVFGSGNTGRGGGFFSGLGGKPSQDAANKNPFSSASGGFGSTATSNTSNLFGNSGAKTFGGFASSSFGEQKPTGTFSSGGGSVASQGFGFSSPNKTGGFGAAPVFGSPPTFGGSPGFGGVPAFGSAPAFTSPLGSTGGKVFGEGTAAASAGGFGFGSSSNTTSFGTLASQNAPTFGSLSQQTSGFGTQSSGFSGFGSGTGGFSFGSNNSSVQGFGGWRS

Tests used:
Assay in all cases: log2 fold change, soluble protein after heating vs DMSO (PISA); higher = thermal stabilisation; K562 lysate, 10 uM; active = over 0.2 and 3.5 SD of the protein, either way, in both replicates (recomputed)
ibrutinib = compound: C=CC(=O)N1CCC[C@@H](n2nc(-c3ccc(Oc4ccccc4)cc3)c3c(N)ncnc32)C1 [ibrutinib]
Summary of the method: (§1)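 Soluble protein was defined as the supernatant remaining after 21,000xg for 90 min, following pooling of heated aliquots and adjustment to 0.5% NP-40 at 4°C. Before that, crude K562 extract at 1 mg/mL protein in PBS pH 7.4 with 1 mM MgCl2 was treated with 10 μM compound for 30 min and heated for 3 min across 48°C-58°C. Quantification used TMTpro 16plex LC-MS/MS with channel sums equalised, and values are log-two fold changes in thermal stability relative to solvent controls from duplicates.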

[1] = compound: CC(=O)c1cnc2ccc(-c3cc(Cl)c(O)c(Cl)c3)nc2c1N[C@H]1CC[C@H](CN(C)C)CC1
Summary of the method: as §1

ralimetinib = compound: CC(C)(C)Cn1c(N)nc2ccc(-c3[nH]c(C(C)(C)C)nc3-c3ccc(F)cc3)nc21 [ralimetinib]
Summary of the method: as §1

[2] = compound: CC(C)(O)CC(=O)NCCn1ccc2ncnc(Nc3ccc(Oc4cccc(C(F)(F)F)c4)c(Cl)c3)c21
Summary of the method: as §1

[3] = compound: CC(C)C1=C2N=C(C=C(N2N=C1)NCC3=CC=CC=C3)NCCCCCCN
Summary of the method: as §1

[4] = compound: CC1=C(C(CC(=O)N1)C2=CC=C(C=C2)C(F)(F)F)C(=O)NC3=C(C=C4C(=C3)C=NN4)F
Summary of the method: as §1

[5] = compound: CC1=C(C2=C(C=C1)C(=O)C3=CC=CC=C3N2CCCN)C
Summary of the method: as §1

[6] = compound: CC1=C(C=C(C=C1)NC(=O)C2=CC(=CC=C2)C(C)(C)C#N)NC3=CC4=C(C=C3)N=CN(C4=O)C
Summary of the method: as §1

[7] = compound: CC1=C(C=C(C=C1)NC(=O)C2=CC(=CC=C2)N(C)C)NC(=O)C3=CC=C(C=C3)O
Summary of the method: as §1

[8] = compound: CC1=CC=C(C=C1)SC2=C3C=C(SC3=CN=C2)C(=O)N
Summary of the method: as §1

Measured: log2 fold change

OSGEP (UniProt Q9NPF4)
inactive: ibrutinib -0.009 | [1] 0.02 | ralimetinib 0.022 | [2] -0.03 | [3] -0.003 | [4] 0 | [5] 0.001 | [6] 0.012 | [7] -0.057 | [8] -0.002

OPA3 (UniProt Q9H6K4)
inactive: ibrutinib -0.014 | [1] 0.008 | ralimetinib 0.037 | [2] -0.053 | [3] -0.021 | [4] 0.08 | [5] -0.002 | [6] 0.05 | [7] 0.044 | [8] 0.086

PAFAH1B1 (UniProt P43034)
inactive: ibrutinib 0.012 | [1] -0.005 | ralimetinib 0.002 | [2] 0.052 | [3] -0.038 | [4] -0.009 | [5] 0.007 | [6] -0.035 | [7] 0.015 | [8] -0.011

OPLAH (UniProt O14841)
inactive: ibrutinib -0.008 | [1] -0.007 | ralimetinib -0.002 | [2] 0.034 | [3] -0.022 | [4] 0.016 | [5] -0.019 | [6] -0.037 | [7] -0.001 | [8] 0.011

NVL (UniProt O15381)
inactive: ibrutinib 0.067 | [1] -0.042 | ralimetinib -0.024 | [2] 0 | [3] -0.005 | [4] -0.028 | [5] 0.014 | [6] -0.042 | [7] -0.013 | [8] 0.034

NUP62 (UniProt P37198)
inactive: ibrutinib 0.073 | [1] 0.033 | ralimetinib -0.013 | [2] -0.023 | [3] -0.017 | [4] 0.016 | [5] 0.04 | [6] -0.07 | [7] 0.014 | [8] -0.027

OSBPL8 (UniProt Q9BZF1)
inactive: ibrutinib -0.035 | [1] -0.028 | ralimetinib 0.017 | [2] -0.01 | [3] -0.031 | [4] -0.009 | [5] -0.039 | [6] -0.007 | [7] 0.037 | [8] -0.071

OIP5 (UniProt O43482)
inactive: ibrutinib 0.165 | [1] 0.02 | ralimetinib -0.021 | [2] -0.026 | [3] 0.005 | [4] -0.084 | [5] 0.041 | [6] 0.064 | [7] 0.008 | [8] -0.002

OGA (UniProt O60502)
inactive: ibrutinib -0.006 | [1] 0.001 | ralimetinib 0.022 | [2] -0.028 | [3] -0.025 | [4] 0.005 | [5] -0.015 | [6] 0.002 | [7] 0.008 | [8] -0.008

OGFR (UniProt Q9NZT2)
inactive: ibrutinib -0.012 | [1] 0.02 | ralimetinib 0.007 | [2] -0.011 | [3] -0.008 | [4] 0.001 | [5] -0.016 | [6] -0.027 | [7] -0.003 | [8] 0.002

ORC5 (UniProt O43913)
inactive: ibrutinib 0.05 | [1] 0 | ralimetinib 0.047 | [2] -0.001 | [3] 0.022 | [4] -0.027 | [5] -0.008 | [6] 0.012 | [7] 0.053 | [8] -0.007

PAFAH2 (UniProt Q99487)
inactive: ibrutinib -0.039 | [1] 0.158 | ralimetinib -0.038 | [2] 0.032 | [3] -0.022 | [4] 0.065 | [5] -0.062 | [6] 0.018 | [7] 0.019 | [8] -0.016

PACS1 (UniProt Q6VY07)
inactive: ibrutinib 0.041 | [1] -0.011 | ralimetinib 0.012 | [2] -0.042 | [3] -0.039 | [4] -0.009 | [5] 0.011 | [6] -0.017 | [7] -0.02 | [8] 0.014

OTUD4 (UniProt Q01804)
inactive: ibrutinib 0.017 | [1] 0.042 | ralimetinib 0.014 | [2] -0.025 | [3] 0.003 | [4] 0.018 | [5] -0.025 | [6] -0.009 | [7] 0.002 | [8] -0.01

NUP43 (UniProt Q8NFH3)
inactive: ibrutinib 0.046 | [1] -0.006 | ralimetinib 0.027 | [2] -0.013 | [3] 0.009 | [4] -0.013 | [5] 0 | [6] 0.011 | [7] 0.001 | [8] -0.014

PARG (UniProt Q86W56)
inactive: ibrutinib 0.013 | [1] 0.01 | ralimetinib 0.017 | [2] -0.011 | [3] -0.025 | [4] -0.017 | [5] -0.028 | [6] 0.021 | [7] 0.061 | [8] 0.005

OXSM (UniProt Q9NWU1)
inactive: ibrutinib 0.022 | [1] 0.013 | ralimetinib -0.006 | [2] -0.032 | [3] -0.037 | [4] 0.016 | [5] -0.003 | [6] 0.032 | [7] -0.022 | [8] -0.016

ODR4 (UniProt Q5SWX8)
inactive: ibrutinib -0.051 | [1] -0.028 | ralimetinib 0.054 | [2] 0.045 | [3] -0.107 | [4] 0.009 | [5] 0.023 | [6] 0.037 | [7] 0.035 | [8] -0.025

NUP50 (UniProt Q9UKX7)
inactive: ibrutinib 0.018 | [1] 0.002 | ralimetinib -0.024 | [2] -0.024 | [3] -0.025 | [4] 0.033 | [5] -0.011 | [6] 0.003 | [7] 0.019 | [8] -0.011

OVCA2 (UniProt Q8WZ82)
inactive: ibrutinib 0.105 | [1] 0.045 | ralimetinib -0.046 | [2] 0.108 | [3] -0.042 | [4] -0.037 | [5] 0.026 | [6] -0.077 | [7] 0.007 | [8] 0.005

ORC3 isoform 2 (UniProt Q9UBD5)
inactive: ibrutinib -0.034 | [1] 0.007 | ralimetinib 0.034 | [2] -0.05 | [3] 0.008 | [4] 0.048 | [5] -0.036 | [6] 0.003 | [7] 0.029 | [8] -0.012

OAT (UniProt P04181)
inactive: ibrutinib -0.007 | [1] 0.013 | ralimetinib 0.009 | [2] 0.002 | [3] 0 | [4] -0.045 | [5] -0.018 | [6] -0.006 | [7] 0.034 | [8] -0.009

OSBPL3 isoform 2 (UniProt Q9H4L5)
inactive: ibrutinib 0.031 | [1] -0.007 | ralimetinib 0.019 | [2] 0.004 | [3] -0.033 | [4] 0.018 | [5] 0.02 | [6] 0.015 | [7] 0.057 | [8] -0.016

OPA1 isoform 2 (UniProt O60313)
inactive: ibrutinib -0.001 | [1] 0.006 | ralimetinib -0.004 | [2] -0.036 | [3] -0.035 | [4] 0.031 | [5] 0.026 | [6] 0.024 | [7] 0.046 | [8] 0.02

OXR1 (UniProt Q8N573)
inactive: ibrutinib 0.043 | [1] -0.013 | ralimetinib -0.012 | [2] -0.026 | [3] -0.009 | [4] -0.01 | [5] -0.017 | [6] 0.02 | [7] 0 | [8] -0.031

NUP188 (UniProt Q5SRE5)
inactive: ibrutinib -0.026 | [1] 0.019 | ralimetinib 0.041 | [2] -0.021 | [3] -0.028 | [4] -0.005 | [5] 0.035 | [6] -0.04 | [7] 0.042 | [8] -0.018

Taken from the results shown (2 entries):
OPA1 isoform 2 (UniProt O60313)
inactive: ibrutinib -0.001 | [1] 0.006 | ralimetinib -0.004 | [2] -0.036 | [3] -0.035 | [4] 0.031 | [5] 0.026 | [6] 0.024 | [7] 0.046 | [8] 0.02

OXR1 (UniProt Q8N573)
inactive: ibrutinib 0.043 | [1] -0.013 | ralimetinib -0.012 | [2] -0.026 | [3] -0.009 | [4] -0.01 | [5] -0.017 | [6] 0.02 | [7] 0 | [8] -0.031

Remaining list, next part:

NUP54 (UniProt Q7Z3B4)
inactive: ibrutinib 0.028 | [1] 0.015 | ralimetinib -0.023 | [2] -0.039 | [3] 0.019 | [4] 0.025 | [5] 0.016 | [6] -0.032 | [7] 0.008 | [8] -0.023

PANK1 (UniProt Q8TE04)
inactive: ibrutinib -0.031 | [1] -0.007 | ralimetinib 0.04 | [2] -0.003 | [3] -0.079 | [4] 0.045 | [5] -0.068 | [6] -0.035 | [7] -0.025 | [8] 0.064

OSTC isoform 2 (UniProt Q9NRP0)
inactive: ibrutinib -0.046 | [1] 0.035 | ralimetinib -0.023 | [2] -0.178 | [3] -0.002 | [4] -0.043 | [5] -0.107 | [6] 0.083 | [7] -0.034 | [8] 0.02

NUP214 (UniProt P35658)
inactive: ibrutinib -0.014 | [1] 0.004 | ralimetinib -0.003 | [2] -0.016 | [3] -0.003 | [4] -0.007 | [5] 0.008 | [6] -0.062 | [7] 0.009 | [8] -0.011
